# Laboratory results taken from publication PMC11853149.
# Sequences of proteins named here, by UniProt entry; tags and fusion partners are left off.
# UniProt P51858: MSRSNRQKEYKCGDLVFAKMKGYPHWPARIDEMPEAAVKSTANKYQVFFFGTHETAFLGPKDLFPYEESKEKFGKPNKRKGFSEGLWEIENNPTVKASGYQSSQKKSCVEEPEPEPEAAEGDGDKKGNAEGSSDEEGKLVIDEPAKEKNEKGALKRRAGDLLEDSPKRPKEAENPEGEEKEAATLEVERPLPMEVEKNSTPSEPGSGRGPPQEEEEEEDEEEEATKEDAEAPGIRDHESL
# UniProt P12956: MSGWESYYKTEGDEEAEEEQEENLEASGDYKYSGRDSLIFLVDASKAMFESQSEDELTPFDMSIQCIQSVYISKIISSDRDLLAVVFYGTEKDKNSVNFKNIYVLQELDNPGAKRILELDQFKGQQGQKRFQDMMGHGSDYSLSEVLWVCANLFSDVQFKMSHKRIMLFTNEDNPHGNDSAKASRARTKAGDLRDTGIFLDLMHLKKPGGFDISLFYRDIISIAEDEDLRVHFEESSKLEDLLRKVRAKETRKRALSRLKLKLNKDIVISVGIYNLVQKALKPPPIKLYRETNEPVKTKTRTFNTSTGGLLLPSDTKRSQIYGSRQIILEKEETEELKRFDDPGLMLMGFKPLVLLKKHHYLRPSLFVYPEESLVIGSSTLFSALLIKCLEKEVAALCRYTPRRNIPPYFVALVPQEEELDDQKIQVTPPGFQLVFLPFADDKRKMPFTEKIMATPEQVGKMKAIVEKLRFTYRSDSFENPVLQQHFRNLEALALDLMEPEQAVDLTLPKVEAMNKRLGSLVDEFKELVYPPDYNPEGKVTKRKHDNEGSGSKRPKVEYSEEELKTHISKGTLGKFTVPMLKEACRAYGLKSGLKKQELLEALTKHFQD
# UniProt P13010: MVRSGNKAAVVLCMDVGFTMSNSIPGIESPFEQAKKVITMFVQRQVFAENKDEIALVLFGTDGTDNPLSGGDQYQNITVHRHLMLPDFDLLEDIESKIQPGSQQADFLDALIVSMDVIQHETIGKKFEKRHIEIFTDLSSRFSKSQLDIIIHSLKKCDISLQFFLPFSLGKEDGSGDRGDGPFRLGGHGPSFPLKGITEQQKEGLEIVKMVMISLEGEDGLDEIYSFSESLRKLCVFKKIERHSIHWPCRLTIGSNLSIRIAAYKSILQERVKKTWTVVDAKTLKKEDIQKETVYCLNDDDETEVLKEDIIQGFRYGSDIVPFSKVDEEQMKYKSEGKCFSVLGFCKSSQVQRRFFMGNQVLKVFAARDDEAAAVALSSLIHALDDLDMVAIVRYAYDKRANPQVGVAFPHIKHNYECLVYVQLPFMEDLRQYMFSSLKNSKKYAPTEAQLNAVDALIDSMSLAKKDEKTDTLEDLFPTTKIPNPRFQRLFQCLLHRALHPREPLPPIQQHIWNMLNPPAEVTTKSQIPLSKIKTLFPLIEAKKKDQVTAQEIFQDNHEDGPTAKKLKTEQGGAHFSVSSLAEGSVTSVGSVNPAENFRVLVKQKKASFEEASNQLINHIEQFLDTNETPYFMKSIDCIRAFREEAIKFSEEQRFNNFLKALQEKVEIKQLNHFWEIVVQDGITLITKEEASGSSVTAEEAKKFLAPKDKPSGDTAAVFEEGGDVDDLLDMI
# UniProt P15927: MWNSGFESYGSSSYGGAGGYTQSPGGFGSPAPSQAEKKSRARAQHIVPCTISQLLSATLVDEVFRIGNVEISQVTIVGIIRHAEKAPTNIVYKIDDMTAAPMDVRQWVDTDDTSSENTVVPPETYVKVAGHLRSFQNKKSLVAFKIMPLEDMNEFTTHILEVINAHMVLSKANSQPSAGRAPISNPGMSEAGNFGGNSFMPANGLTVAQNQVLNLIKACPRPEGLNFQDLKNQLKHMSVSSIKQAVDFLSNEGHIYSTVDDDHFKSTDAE
# UniProt P78527: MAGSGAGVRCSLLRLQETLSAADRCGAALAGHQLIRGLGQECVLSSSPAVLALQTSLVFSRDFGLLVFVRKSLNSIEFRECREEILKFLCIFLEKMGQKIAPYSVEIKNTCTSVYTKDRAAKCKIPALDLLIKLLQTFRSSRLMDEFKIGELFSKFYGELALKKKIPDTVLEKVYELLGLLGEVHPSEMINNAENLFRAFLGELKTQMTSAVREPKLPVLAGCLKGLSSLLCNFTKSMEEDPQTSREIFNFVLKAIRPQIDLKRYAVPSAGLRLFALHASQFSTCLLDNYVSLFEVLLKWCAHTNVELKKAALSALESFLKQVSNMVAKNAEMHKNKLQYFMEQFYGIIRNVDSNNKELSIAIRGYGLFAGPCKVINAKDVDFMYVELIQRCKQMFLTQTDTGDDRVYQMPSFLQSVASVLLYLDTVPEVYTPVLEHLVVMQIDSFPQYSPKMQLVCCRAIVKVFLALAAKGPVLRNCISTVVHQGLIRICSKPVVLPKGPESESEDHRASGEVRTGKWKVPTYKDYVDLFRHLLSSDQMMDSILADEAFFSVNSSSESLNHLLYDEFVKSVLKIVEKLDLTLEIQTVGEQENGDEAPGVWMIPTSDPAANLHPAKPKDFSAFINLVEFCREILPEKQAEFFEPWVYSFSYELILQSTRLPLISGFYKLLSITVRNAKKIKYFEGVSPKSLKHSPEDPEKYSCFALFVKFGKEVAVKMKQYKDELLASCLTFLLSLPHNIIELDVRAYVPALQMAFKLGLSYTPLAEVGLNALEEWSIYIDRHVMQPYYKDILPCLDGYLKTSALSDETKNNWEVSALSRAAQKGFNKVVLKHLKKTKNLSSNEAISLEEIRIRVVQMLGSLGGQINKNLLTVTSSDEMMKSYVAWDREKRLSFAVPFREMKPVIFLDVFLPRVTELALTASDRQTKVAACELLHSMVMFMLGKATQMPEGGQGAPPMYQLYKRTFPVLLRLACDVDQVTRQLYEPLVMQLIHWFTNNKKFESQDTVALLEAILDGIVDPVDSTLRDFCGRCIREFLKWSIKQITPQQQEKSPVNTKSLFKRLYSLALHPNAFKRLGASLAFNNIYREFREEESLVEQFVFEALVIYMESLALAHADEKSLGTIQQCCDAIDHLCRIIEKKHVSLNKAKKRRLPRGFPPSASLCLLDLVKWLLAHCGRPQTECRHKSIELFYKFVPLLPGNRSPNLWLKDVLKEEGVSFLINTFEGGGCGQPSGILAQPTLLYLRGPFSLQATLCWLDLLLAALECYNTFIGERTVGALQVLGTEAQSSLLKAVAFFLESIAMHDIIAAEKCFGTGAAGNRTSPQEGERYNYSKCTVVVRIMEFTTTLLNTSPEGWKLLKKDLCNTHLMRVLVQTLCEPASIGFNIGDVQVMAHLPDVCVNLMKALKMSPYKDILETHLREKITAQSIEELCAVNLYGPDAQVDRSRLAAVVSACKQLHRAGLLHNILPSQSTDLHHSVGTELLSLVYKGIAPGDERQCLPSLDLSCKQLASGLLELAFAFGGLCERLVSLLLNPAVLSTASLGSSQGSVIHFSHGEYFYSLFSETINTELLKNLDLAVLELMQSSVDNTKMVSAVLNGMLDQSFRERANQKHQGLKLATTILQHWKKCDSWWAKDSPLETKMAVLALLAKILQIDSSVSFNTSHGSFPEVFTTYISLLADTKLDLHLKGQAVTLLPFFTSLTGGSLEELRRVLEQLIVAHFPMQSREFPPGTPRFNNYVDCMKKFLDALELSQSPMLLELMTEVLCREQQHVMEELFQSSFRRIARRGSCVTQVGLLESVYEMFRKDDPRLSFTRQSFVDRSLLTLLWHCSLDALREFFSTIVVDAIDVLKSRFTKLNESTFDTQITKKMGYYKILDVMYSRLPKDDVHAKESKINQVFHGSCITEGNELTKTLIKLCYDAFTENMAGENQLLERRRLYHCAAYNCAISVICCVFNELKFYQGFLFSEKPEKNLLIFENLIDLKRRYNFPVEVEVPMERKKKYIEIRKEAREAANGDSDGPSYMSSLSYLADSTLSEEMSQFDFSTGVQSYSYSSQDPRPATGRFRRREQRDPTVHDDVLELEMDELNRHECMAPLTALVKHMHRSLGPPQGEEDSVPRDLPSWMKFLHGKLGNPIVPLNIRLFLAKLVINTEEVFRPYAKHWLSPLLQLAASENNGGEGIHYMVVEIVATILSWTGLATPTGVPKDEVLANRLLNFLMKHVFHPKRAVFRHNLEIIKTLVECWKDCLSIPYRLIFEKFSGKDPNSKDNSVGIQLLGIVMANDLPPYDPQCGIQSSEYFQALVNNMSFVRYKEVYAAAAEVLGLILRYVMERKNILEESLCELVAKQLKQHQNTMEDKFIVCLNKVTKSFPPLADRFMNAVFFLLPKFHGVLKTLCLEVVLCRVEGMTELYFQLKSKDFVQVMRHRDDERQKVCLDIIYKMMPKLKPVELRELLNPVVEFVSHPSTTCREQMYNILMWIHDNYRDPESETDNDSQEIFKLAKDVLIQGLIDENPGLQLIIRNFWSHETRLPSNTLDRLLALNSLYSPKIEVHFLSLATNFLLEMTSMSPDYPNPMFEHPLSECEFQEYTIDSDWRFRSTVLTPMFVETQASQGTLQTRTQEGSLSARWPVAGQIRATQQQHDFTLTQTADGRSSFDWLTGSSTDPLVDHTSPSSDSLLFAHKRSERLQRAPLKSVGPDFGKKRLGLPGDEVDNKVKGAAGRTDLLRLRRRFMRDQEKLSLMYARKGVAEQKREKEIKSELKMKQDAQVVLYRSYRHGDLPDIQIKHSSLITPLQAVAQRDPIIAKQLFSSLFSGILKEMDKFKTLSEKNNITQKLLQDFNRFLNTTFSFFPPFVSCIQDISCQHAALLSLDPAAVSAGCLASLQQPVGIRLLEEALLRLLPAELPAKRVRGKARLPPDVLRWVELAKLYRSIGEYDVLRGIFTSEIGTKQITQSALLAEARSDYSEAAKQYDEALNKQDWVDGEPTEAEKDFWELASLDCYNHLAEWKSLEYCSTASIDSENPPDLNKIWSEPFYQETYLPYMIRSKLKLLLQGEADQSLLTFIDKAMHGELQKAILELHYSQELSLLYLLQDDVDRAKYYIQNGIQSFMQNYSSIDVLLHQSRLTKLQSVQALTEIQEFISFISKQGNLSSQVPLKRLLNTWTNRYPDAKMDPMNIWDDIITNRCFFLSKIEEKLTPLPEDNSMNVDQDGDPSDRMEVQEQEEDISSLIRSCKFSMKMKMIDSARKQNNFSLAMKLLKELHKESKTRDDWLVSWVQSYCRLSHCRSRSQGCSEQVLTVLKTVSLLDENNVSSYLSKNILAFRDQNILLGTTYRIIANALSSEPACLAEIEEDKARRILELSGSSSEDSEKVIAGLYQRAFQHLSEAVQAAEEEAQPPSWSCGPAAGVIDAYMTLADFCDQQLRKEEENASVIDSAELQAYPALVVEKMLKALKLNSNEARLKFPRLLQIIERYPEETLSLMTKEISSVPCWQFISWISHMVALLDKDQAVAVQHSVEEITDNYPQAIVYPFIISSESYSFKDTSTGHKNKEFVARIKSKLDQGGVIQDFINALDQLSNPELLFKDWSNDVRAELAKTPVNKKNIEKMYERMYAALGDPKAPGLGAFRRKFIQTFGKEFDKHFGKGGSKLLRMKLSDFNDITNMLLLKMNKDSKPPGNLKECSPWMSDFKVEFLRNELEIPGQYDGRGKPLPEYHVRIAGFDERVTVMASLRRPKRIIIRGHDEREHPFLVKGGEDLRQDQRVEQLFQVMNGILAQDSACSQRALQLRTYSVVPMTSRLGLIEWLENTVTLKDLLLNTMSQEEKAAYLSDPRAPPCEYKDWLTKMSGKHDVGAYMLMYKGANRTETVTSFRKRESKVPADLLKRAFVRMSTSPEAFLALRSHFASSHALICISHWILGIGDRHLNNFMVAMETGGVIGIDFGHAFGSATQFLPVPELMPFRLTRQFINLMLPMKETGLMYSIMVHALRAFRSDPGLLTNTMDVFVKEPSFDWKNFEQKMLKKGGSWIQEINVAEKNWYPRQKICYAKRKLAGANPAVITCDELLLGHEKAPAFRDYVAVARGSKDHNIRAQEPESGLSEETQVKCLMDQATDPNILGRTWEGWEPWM
# Results are given in words; binding and its absence hold for the method and conditions named. Binding seen in cells or lysates may run through a third protein. Some results given as binding are weak or reduced against the parent protein; the word gives no strength.
# Target: Hepatoma-derived growth factor (HDGF) (human (endogenous in HT29 and HCT116)) (UniProt P51858)
# Assay: co-IP; endogenous proteins in HT29 WT cells lysed in Pierce IP lysis buffer; magnetic beads pre-incubated with anti-HDGF or IgG control antibody, incubated with lysate overnight at 4 °C; immunoblot
row,Substance,binding
1,Ku70 (from UniProt P12956 1-609),binds
2,Ku80 (from UniProt P13010 1-732),binds
3,RPA2 (from UniProt P15927 1-270),binds
4,DNA-PKcs (from UniProt P78527 1-4128),no binding
